From patent US20240279313A1, “BARRIER FUNCTION PRESERVING PEPTIDES FOR MEMBRANES” (priority 2021, published 2024)
At least one peptide structure holds a part that was inferred or is arguable (an end, a ring closure or a residue). Some entries repeat one wording, which the source may state once for all of them. Ends that are not written are not given here.

Key:
[1] = test system: influenza; test: Murine model of influenza; assay type: in vivo, mouse; details: for BAL IgM (lung injury): p<0.05
[2] = Inhibition of HIV-TAT-induced NGC in liposomes (FIG. 12); details: HIV-TAT P/L=1/20; invention peptide P/L 1/100, 1/50 or 1/25
[3] = SAXS, suppression of HIV-TAT-induced cubic phases (NGC)
[4] = SAXS, suppression of melittin-induced cubic phases (NGC)
[5] = HIV-TAT P/L 1/40 + test peptide P/L 1/50
[6] = HIV-TAT P/L 1/40 + test peptide P/L 1/100
[7] = melittin P/L 1/25 + APP-2498 P/L 1/100

With “GDAVKEWFEKAWQKVKEFF [AP4, GDAVKEWFEKAWQKVKEFF]” the “M gene expression (viral burden)” value [1] was “lower levels”, the “BAL IgM (lung injury)” value [1] was “lower levels” and the “Inhibition of HIV-TAT-induced negative Gaussian curvature (NGC)” value (“Inhibition” for short) [2] was “dose-dependent inhibition”.

In the case of “GEKVKEFFQAFFQKAKEYW [AP8, GEKVKEFFQAFFQKAKEYW]”, the “Inhibition” value [2] is reported as “dose-dependent inhibition”.

For “GDAVKEWFEKAWQKVKEFL [AP9, GDAVKEWFEKAWQKVKEFL]”, the “Inhibition” value [2] was “dose-dependent inhibition”.

For “FFERVRQWAKEFWERVADG [AP2, FFERVRQWAKEFWERVADG]”, the “Inhibition” value [2] was “dose-dependent inhibition”.

With “GEKAKEWVQAFWQKAKEYF [AP7, GEKAKEWVQAFWQKAKEYF]” the “Inhibition” value [2] was “dose-dependent inhibition”.

For “GDAVREWFEKAWQRVREFF [AP1, G-D-A-V-R-E-W-F-E-K-A-W-Q-R-V-R-E-F-F]”, the Cubic phases present ([3]; HIV-TAT P/L 1/40 + test peptide P/L 1/25) was “*Empty cells indicate the absence of cubic phases”, the “<K> (NGC) of Pn3m cubic phase” value [3, 5] was “<K> = −2.02E−2 nm^−2” and the “Lattice parameter of Pn3m cubic phase” value [3, 5] was “Pn3m (α = 18.0 nm)”. For the same sequence, the “<K> (NGC) of Pn3m cubic phase” value [3, 6] was “<K> = −1.64E−2 nm^−2”, the “Lattice parameter of Pn3m cubic phase” value [3, 6] was “Pn3m (α = 20.0 nm)” and the “Effect on HIV-TAT-induced Pn3m QII phases (NGC)” value ([3]; HIV-TAT P/L 1/40, test peptide P/L varied 1/100 to 1/25) was “suppressed at high P/L molar ratios”. For the same sequence, the Cubic phases present ([4]; melittin P/L 1/25 + APP-2498 P/L 1/25) was “*Empty cells indicate the absence of cubic phases”, the Cubic phases present ([4]; melittin P/L 1/25 + APP-2498 P/L 1/50) was “*Empty cells indicate the absence of cubic phases” and the “<K> (NGC) of Im3m cubic phase” value [4, 7] was “<K> = −3.48E−2 nm^−2”. The “Lattice parameter of Im3m cubic phase” value [4, 7] was “Im3m (α = 17.5 nm)”, the “Effect on melittin-induced Im3m QII phases” value ([4]; melittin P/L 1/25, APP-2498 P/L varied) was “suppressed at high P/L molar ratios” and the “M gene expression (viral burden)” value [1] was “lower levels”. For the same sequence, the “BAL IgM (lung injury)” value [1] was “lower levels” and the “Inhibition” value [2] was “dose-dependent inhibition”.

With “GEQLKQKFQEFWDKLKEWY [AP10, GEQLKQKFQEFWDKLKEWY]” the “Inhibition” value [2] was “dose-dependent inhibition”.
